{
  "source": "PubChem BioAssay AID434947",
  "about": "(Broad Institute, 2010)",
  "note": "The whole screen tested about 2,200 compounds, of which about 15 (0.7%) were called active.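 The calls were made as follows: active = fitted half-maximal concentration for loss of luminescence signal no more than a set limit of log units above the top tested concentration; inconclusive = flat fit with 30 to 70% signal loss, or invalid fit; inactive = half-maximal concentration above that set limit.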 This is one part of the list.",
  "data": [
    {"assay": "inhibitors of ADP-Glo detection reagents, dose response, artefact control for GSK3beta inhibitor project, biochemical, luminescence, cell-free, homogeneous (AID 434947);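 also: kinase-free counter screen of ADP-Glo detection reagents for GSK3beta hits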", "conditions": "5 uM ADP", "values": [
      {"compound": "COc1ccc2occ(C(=O)c3ccccc3)c2c1", "EC50": "inactive: > 30 µM"},
      {"compound": "Nc1nc(O)c(N=Nc2ccc(S(N)(=O)=O)cc2)c(=O)[nH]1", "EC50": "inactive: > 30 µM"},
      {"compound": "COc1cc(/C=C/c2nc3ccc([N+](=O)[O-])cc3s2)ccc1OCC(=O)O", "EC50": "inactive: > 30 µM"},
      {"compound": "N#CCCn1cc(/C=N/O)c(-c2cccc([N+](=O)[O-])c2)n1", "EC50": "inactive: > 30 µM"},
      {"compound": "Clc1ccc(-c2nnc(-c3ccccc3)c(N3CCSCC3)n2)cc1", "EC50": "inactive: > 30 µM"},
      {"compound": "COc1ccc(Nc2nc(NCC3CCCO3)nc(N)c2[N+](=O)[O-])cc1", "note": "(stereo not given)", "EC50": "inactive: > 30 µM"},
      {"compound": "Clc1ccc(CSc2nnc(-c3ccncc3)o2)c(Cl)c1", "EC50": "inactive: > 30 µM"},
      {"compound": "O=C(CN1C(=O)CCC1=O)Nc1ccc2c3c(cccc13)CC2", "EC50": "inactive: > 30 µM"},
      {"compound": "COc1cccc(C(=O)NCC(=O)N/N=C(C)\\C=C\\c2ccccc2)c1", "EC50": "inactive: > 30 µM"},
      {"compound": "CC1CCCC(C)N1C(=O)CN1C(=O)C(C)(C)Oc2ccc(C(=O)NC3CCCC3)cc21", "note": "(stereo not given)", "EC50": "inactive: > 30 µM"},
      {"compound": "CC(=O)Oc1ccc2occ(C(=O)c3ccccc3)c2c1", "EC50": "inactive: > 30 µM"},
      {"compound": "CN(C)Cc1c(C(=O)N/N=C/CCc2ccccc2)nnn1-c1nonc1N", "EC50": "inactive: > 30 µM"},
      {"compound": "Cc1ccc(/C=N/Nc2ncnc3nc[nH]c23)cc1", "EC50": "inactive: > 30 µM"},
      {"compound": "CCCc1cc(=O)[nH]c2nnc(SCC(=O)Nc3nccs3)n12", "EC50": "inactive: > 30 µM"},
      {"compound": "COc1cc(/C=C2\\SC(=Nc3ccc(O)cc3)NC2=O)cc(OC)c1OC", "EC50": "inactive: > 30 µM"},
      {"compound": "COc1ccc(C(=O)O/N=C(\\N)c2ccccn2)cc1", "EC50": "active: 15.5 µM"},
      {"compound": "Cc1cc(CNC(=O)c2cc(COc3c(F)cccc3F)on2)nn1C", "EC50": "inactive: > 30 µM"},
      {"compound": "CCOC(=O)/C=C(/C)N1N=C(c2ccc(OC)cc2)CC1c1cccc([N+](=O)[O-])c1", "note": "(stereo not given)", "EC50": "inactive: > 30 µM"},
      {"compound": "Cc1ccc(S(=O)(=O)N(C)CC(=O)N2CCCc3ccccc32)cc1", "EC50": "inactive: > 30 µM"},
      {"compound": "O=C(Nc1cccc(Cl)c1)Nc1ccnc(-c2cccnc2)n1", "EC50": "inactive: > 30 µM"},
      {"compound": "O=C(OCCN1CCOCC1)c1ccc(O)cc1", "EC50": "inactive: > 30 µM"},
      {"compound": "CC(=O)c1sc(NC(=O)CCNC(=O)c2ccco2)nc1-c1ccccc1", "EC50": "inactive: > 30 µM"},
      {"compound": "CCn1nc(NC(=O)CC(C)C)c2cc3ccc(C)cc3nc21", "EC50": "inactive: > 30 µM"},
      {"compound": "COc1cc2c(O)c3c(c(-c4ccc5c(c4)OCO5)c2cc1OC)C(=O)OC3", "EC50": "inactive: > 30 µM"},
      {"compound": "COc1cc(/C=N/NC(=O)COc2ccc([N+](=O)[O-])cc2)ccc1OCC(=O)N1CCOCC1", "EC50": "inactive: > 30 µM"}
    ]}
  ]
}
